# Some of the results follow.
# B1: Clec18A (Homo sapiens) (protein)
# chain: PFHTCDLRIDGDCFMVSSEADTYYRARMKCQRKGGVLAQIKRQKVQDILAFYLGRLETTNEVIDSDFETRNFWIGLTYKTAKDSFRWATGEHQAFTSFAFGQPDNHGFGNCVELQASAAFNWNDQRCKTRNRYICQ
# Columns and labels:
# Experiment in all cases: glycan array binding signal (z-score within array); higher = stronger binding
# Conditions in all cases: glycan notation: IUPAC condensed, linker removed
# Gal6S(b1-4)Glc6S = target: Gal6S(b1-4)Glc6S
# Summary of the method: (§1)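 Glycan array binding is given as a within-array Z-score, which can be read as non-binding when negative. The arrays, 3228 of them, came from the Consortium for Functional Glycomics database and were retained only where the protein sequence was available. Z-scores were averaged across arrays of the same protein sequence at different concentrations or buffers and across linkers.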
# Gal6S(b1-4)GlcNAc = target: Gal6S(b1-4)GlcNAc
# Summary of the method: as §1
# Gal6S(b1-4)GlcNAc6S = target: Gal6S(b1-4)GlcNAc6S
# Summary of the method: as §1
# GalNAc(a1-3)Gal = target: GalNAc(a1-3)Gal
# Summary of the method: as §1
# GalNAc(a1-3)GalNAc = target: GalNAc(a1-3)GalNAc
# Summary of the method: as §1
# [1] = target: GalNAc(a1-3)GalNAc(b1-3)Gal(a1-4)Gal(b1-4)Glc
# Summary of the method: as §1
# [2] = target: GalNAc(a1-3)GalNAc(b1-3)Gal(a1-4)Gal(b1-4)GlcNAc
# Summary of the method: as §1
# GalNAc(b1-3)Gal = target: GalNAc(b1-3)Gal
# Summary of the method: as §1
# [3] = target: GalNAc(b1-3)Gal(a1-4)Gal(b1-4)GlcNAc
# Summary of the method: as §1
# [4] = target: GalNAc(b1-3)Gal(a1-4)Gal(b1-4)GlcNAc(b1-3)Gal(b1-4)Glc
# Summary of the method: as §1
# [5] = target: GalNAc(b1-3)Gal(a1-6)Gal(b1-4)Glc
# Summary of the method: as §1
# GalNAc(b1-3)GalNAc = target: GalNAc(b1-3)GalNAc
# Summary of the method: as §1
# GalNAc(b1-3)GlcNAc = target: GalNAc(b1-3)GlcNAc
# Summary of the method: as §1
# GalNAc(b1-4)Gal(b1-4)Glc = target: GalNAc(b1-4)Gal(b1-4)Glc
# Summary of the method: as §1
# GalNAc(b1-4)GlcNAc = target: GalNAc(b1-4)GlcNAc
# Summary of the method: as §1
# [6] = target: GalNAc(b1-4)GlcNAc(b1-2)Man
# Summary of the method: as §1
# [7] = target: GalNAc(b1-4)GlcNAc(b1-2)Man(a1-3)[GalNAc(b1-4)GlcNAc(b1-2)Man(a1-6)]Man(b1-4)GlcNAc(b1-4)GlcNAc
# Summary of the method: as §1
# [8] = target: GalNAc(b1-4)GlcNAc(b1-3)GalNAc(b1-4)GlcNAc
# Summary of the method: as §1
# GalNAc(b1-4)GlcNAc6S = target: GalNAc(b1-4)GlcNAc6S
# Summary of the method: as §1
# GalNAc(b1-6)GalNAc = target: GalNAc(b1-6)GalNAc
# Summary of the method: as §1
# GalNAc3S(b1-4)GlcNAc = target: GalNAc3S(b1-4)GlcNAc
# Summary of the method: as §1
# GalNAc3S(b1-4)GlcNAc3S = target: GalNAc3S(b1-4)GlcNAc3S
# Summary of the method: as §1
# [9] = target: GalNAc3S(b1-4)[Fuc(a1-3)]GlcNAc
# Summary of the method: as §1
# GalNAc4S6S(b1-4)GlcNAc = target: GalNAc4S6S(b1-4)GlcNAc
# Summary of the method: as §1
# GalNAc6S(b1-4)GlcNAc = target: GalNAc6S(b1-4)GlcNAc
# Summary of the method: as §1
# Glc(a1-4)Glc = target: Glc(a1-4)Glc
# Summary of the method: as §1
# [10] = target: Glc(a1-4)Glc(a1-4)Glc(a1-4)Glc
# Summary of the method: as §1
# Glc(a1-6)Glc(a1-6)Glc = target: Glc(a1-6)Glc(a1-6)Glc
# Summary of the method: as §1
# [11] = target: Glc(a1-6)Glc(a1-6)Glc(a1-6)Glc
# Summary of the method: as §1
# Glc(b1-4)Glc = target: Glc(b1-4)Glc
# Summary of the method: as §1
# Glc(b1-6)Glc = target: Glc(b1-6)Glc
# Summary of the method: as §1
# GlcA(b1-3)Gal = target: GlcA(b1-3)Gal
# Summary of the method: as §1
# GlcA(b1-3)GlcNAc = target: GlcA(b1-3)GlcNAc
# Summary of the method: as §1
# GlcA(b1-6)Gal = target: GlcA(b1-6)Gal
# Summary of the method: as §1
# [12] = target: GlcA3S(b1-3)Gal(b1-4)GlcNAc(b1-2)Man
# Summary of the method: as §1
# [13] = target: GlcA3S(b1-3)Gal(b1-4)GlcNAc(b1-3)Gal(b1-4)Glc
# Summary of the method: as §1
# [14] = target: GlcNAc(a1-3)Gal(b1-4)GlcNAc
# Summary of the method: as §1
# [15] = target: GlcNAc(a1-4)Gal(b1-3)GlcNAc
# Summary of the method: as §1
# [16] = target: GlcNAc(a1-4)Gal(b1-4)GalNAc
# Summary of the method: as §1
# [17] = target: GlcNAc(a1-4)Gal(b1-4)GlcNAc
# Summary of the method: as §1
# [18] = target: GlcNAc(a1-4)Gal(b1-4)GlcNAc(b1-3)Gal(b1-4)Glc
# Summary of the method: as §1
# [19] = target: GlcNAc(a1-4)Gal(b1-4)GlcNAc(b1-3)Gal(b1-4)GlcNAc
# Summary of the method: as §1
# [20] = target: GlcNAc(a1-4)Gal(b1-4)GlcNAc(b1-3)Gal(b1-4)GlcNAc(b1-3)Gal(b1-4)GlcNAc
# Summary of the method: as §1
# [21] = target: GlcNAc(a1-4)Gal(b1-4)GlcNAc(b1-3)Gal(b1-4)[Fuc(a1-3)]GlcNAc(b1-3)Gal(b1-4)[Fuc(a1-3)]GlcNAc
# Summary of the method: as §1
# [22] = target: GlcNAc(a1-6)Gal(b1-4)GlcNAc
# Summary of the method: as §1
binder,measurement,setting,value
B1,glycan array binding signal (z-score),Gal6S(b1-4)Glc6S,0.18
same,glycan array binding signal (z-score),Gal6S(b1-4)GlcNAc,0.079
same,glycan array binding signal (z-score),Gal6S(b1-4)GlcNAc6S,0.22
same,glycan array binding signal (z-score),GalNAc(a1-3)Gal,-0.664
same,glycan array binding signal (z-score),GalNAc(a1-3)GalNAc,0.305
same,glycan array binding signal (z-score),[1],0.599
same,glycan array binding signal (z-score),[2],-0.691
same,glycan array binding signal (z-score),GalNAc(b1-3)Gal,0.82
same,glycan array binding signal (z-score),[3],1.13
same,glycan array binding signal (z-score),[4],-0.779
same,glycan array binding signal (z-score),[5],0.373
same,glycan array binding signal (z-score),GalNAc(b1-3)GalNAc,-0.752
same,glycan array binding signal (z-score),GalNAc(b1-3)GlcNAc,0.024
same,glycan array binding signal (z-score),GalNAc(b1-4)Gal(b1-4)Glc,-0.71
same,glycan array binding signal (z-score),GalNAc(b1-4)GlcNAc,-0.05
same,glycan array binding signal (z-score),[6],0.033
same,glycan array binding signal (z-score),[7],1.3
same,glycan array binding signal (z-score),[8],-0.852
same,glycan array binding signal (z-score),GalNAc(b1-4)GlcNAc6S,0.066
same,glycan array binding signal (z-score),GalNAc(b1-6)GalNAc,0.096
same,glycan array binding signal (z-score),GalNAc3S(b1-4)GlcNAc,0.9
same,glycan array binding signal (z-score),GalNAc3S(b1-4)GlcNAc3S,-0.807
same,glycan array binding signal (z-score),[9],2.83
same,glycan array binding signal (z-score),GalNAc4S6S(b1-4)GlcNAc,-0.491
same,glycan array binding signal (z-score),GalNAc6S(b1-4)GlcNAc,-0.023
same,glycan array binding signal (z-score),Glc(a1-4)Glc,-0.275
same,glycan array binding signal (z-score),[10],-0.768
same,glycan array binding signal (z-score),Glc(a1-6)Glc(a1-6)Glc,-0.771
same,glycan array binding signal (z-score),[11],-0.823
same,glycan array binding signal (z-score),Glc(b1-4)Glc,-0.586
same,glycan array binding signal (z-score),Glc(b1-6)Glc,-0.715
same,glycan array binding signal (z-score),GlcA(b1-3)Gal,-0.897
same,glycan array binding signal (z-score),GlcA(b1-3)GlcNAc,-0.548
same,glycan array binding signal (z-score),GlcA(b1-6)Gal,8.1
same,glycan array binding signal (z-score),[12],-0.619
same,glycan array binding signal (z-score),[13],0.435
same,glycan array binding signal (z-score),[14],-0.82
same,glycan array binding signal (z-score),[15],-0.342
same,glycan array binding signal (z-score),[16],1.05
same,glycan array binding signal (z-score),[17],-0.677
same,glycan array binding signal (z-score),[18],-0.68
same,glycan array binding signal (z-score),[19],-0.784
same,glycan array binding signal (z-score),[20],-0.889
same,glycan array binding signal (z-score),[21],-0.419
same,glycan array binding signal (z-score),[22],0.11

# Source: the supplement of paper PMC8728848
